According to patent US20090004198A1 (published 2009):
These are yes or no findings as the source states them, for the method shown. Some binding calls cover weakened binding; strength is not graded here.

Sequences of proteins named here, by UniProt entry; tags and fusion partners are left off. Residues count along the entry.
HCMV glycoprotein B (gB) / HCMV-AD1 from HCMV (AD169 strain) (human cytomegalovirus (HCMV), AD169 strain) (P06473, residues 460-906): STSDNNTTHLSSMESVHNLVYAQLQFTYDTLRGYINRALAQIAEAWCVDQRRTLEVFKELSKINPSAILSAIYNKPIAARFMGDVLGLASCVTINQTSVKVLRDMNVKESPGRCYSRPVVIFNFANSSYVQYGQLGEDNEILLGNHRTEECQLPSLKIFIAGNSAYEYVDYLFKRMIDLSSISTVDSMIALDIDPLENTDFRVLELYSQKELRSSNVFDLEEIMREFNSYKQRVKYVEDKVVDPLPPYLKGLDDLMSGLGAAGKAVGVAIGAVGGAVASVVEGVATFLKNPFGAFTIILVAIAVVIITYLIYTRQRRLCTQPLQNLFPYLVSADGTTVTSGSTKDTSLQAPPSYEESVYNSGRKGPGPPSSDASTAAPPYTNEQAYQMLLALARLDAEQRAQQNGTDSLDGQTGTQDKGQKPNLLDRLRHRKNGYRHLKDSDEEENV
GST-HCMV-AD1 fusion protein (human cytomegalovirus (HCMV)) (P06473, residues 552-635): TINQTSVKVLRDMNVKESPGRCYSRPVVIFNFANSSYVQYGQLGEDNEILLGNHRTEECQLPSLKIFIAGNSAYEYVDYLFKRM

Legend:
[1] = target: HCMV glycoprotein B (gB) / HCMV-AD1 from HCMV (AD169 strain) (human cytomegalovirus (HCMV), AD169 strain) (UniProt P06473); test: Western blot on lysate of HCMV AD169-infected HEL cells
[2] = target: HCMV glycoprotein B (gB) / HCMV-AD1 from HCMV (AD169 strain) (human cytomegalovirus (HCMV), AD169 strain) (UniProt P06473); test: Western blot
[3] = target: GST-HCMV-AD1 fusion protein (human cytomegalovirus (HCMV)) (UniProt P06473); test: ELISA of culture supernatants of 293T cells transfected with the H and L chain cDNAs (plate antigen taken to be GST fused HCMV-AD1 as in the screening)
[4] = target: GST-HCMV-AD1 fusion protein (human cytomegalovirus (HCMV)) (UniProt P06473); test: ELISA after Protein A purification (plate antigen taken to be GST fused HCMV-AD1 as in the screening)

Measured: binding

B1: anti-HCMV antibody (G3D No. 9) (antibody, human IgG1, kappa, V domains shown)
VH: QVQLVESGGGMVQPGKSLRLSCAASGFTFSSYGMHWVRQAPGRGLEWVAIIWYDGDNTWYADSVKGRITISRDNSKNMLYLQMDSLRVEDTALYYCVRGGLGYFNGWDVDHWGQGTLVTVSS
VL: DVVMTQSPLSLPVTLGQPASISCRSSESLVYSDGNTYLNWFQQRPGQSPRRLISKVSNRDSGVPDRFSGSGSGTDFTLKISRVEAEDVGVYYCMQGSHWPPYTFGQGTKLEIKR
notes: also called G3D No. 9 antibody; anti-HCMV monoclonal antibody
binds: all assays above
